{"source": "PubChem BioAssay AID1259308 – NCATS, 2017", "aim": "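Genes whose loss raises luciferase production in HEK293 cells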 (primary screen)", "cell system": "human HEK293 embryonic kidney cells stably expressing firefly luciferase (HEK-CMV-Luc2-Hygro)", "reagent": "single siRNA against human genes, 0.8 pmol siRNA per well", "duration": "72 h", "read-out": "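Luciferase light (ONE-Glo) measured on one replicate plate set and viability (CellTiter-Glo) on the other, scaled to a negative control siRNA, with robust z-scores and luciferase per cell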", "scale": "total luciferase, z-score: higher = more reporter protein produced", "call rule": "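An siRNA counts as active if its total luciferase robust z-score exceeds 3; genes with two or more such siRNAs out of three were retested with fresh siRNAs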", "meaning of the calls": "active = raised luciferase; inactive = no rise", "note": "The whole screen tested about 59,000 reagents; this is an unselected part. In the full data, about 1,510 (2.6%) got an active call. 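Calls use total luciferase alone and ignore viability, so some active siRNAs may act by altering cell number.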 Unmarked entries are inactive. The numbers tell different reagents against one gene apart. Further read-outs or replicates are left out here."}
{"target gene":"HIC2","siRNA no.":1,"total luciferase, z-score":0.742}
{"target gene":"HIC2","siRNA no.":2,"total luciferase, z-score":-0.33}
{"target gene":"HIC2","siRNA no.":3,"total luciferase, z-score":-0.846}
{"target gene":"ZNF302","siRNA no.":1,"total luciferase, z-score":0.0172}
{"target gene":"ZNF302","siRNA no.":2,"total luciferase, z-score":-0.551}
{"target gene":"ZNF302","siRNA no.":3,"total luciferase, z-score":0.976}

Next part (2 carried over from the part before).
{"target gene":"ZNF302","siRNA no.":2,"total luciferase, z-score":-0.551}
{"target gene":"ZNF302","siRNA no.":3,"total luciferase, z-score":0.976}
{"target gene":"MZT2B","siRNA no.":1,"total luciferase, z-score":-0.263}
{"target gene":"MZT2B","siRNA no.":2,"total luciferase, z-score":0.125}
{"target gene":"MZT2B","siRNA no.":3,"total luciferase, z-score":-0.146}
{"target gene":"C20orf141","siRNA no.":1,"total luciferase, z-score":-0.883}
{"target gene":"C20orf141","siRNA no.":2,"total luciferase, z-score":-0.132}
{"target gene":"C20orf141","siRNA no.":3,"total luciferase, z-score":-0.885}
